From paper PMC8315023
Results are given in words; binding and its absence hold for the method and conditions named. Binding seen in cells or lysates may run through a third protein. Some binding calls cover weakened binding; strength is not graded here.

By UniProt entry, the sequences of proteins in these tests, tags left out.
UniProt P01106: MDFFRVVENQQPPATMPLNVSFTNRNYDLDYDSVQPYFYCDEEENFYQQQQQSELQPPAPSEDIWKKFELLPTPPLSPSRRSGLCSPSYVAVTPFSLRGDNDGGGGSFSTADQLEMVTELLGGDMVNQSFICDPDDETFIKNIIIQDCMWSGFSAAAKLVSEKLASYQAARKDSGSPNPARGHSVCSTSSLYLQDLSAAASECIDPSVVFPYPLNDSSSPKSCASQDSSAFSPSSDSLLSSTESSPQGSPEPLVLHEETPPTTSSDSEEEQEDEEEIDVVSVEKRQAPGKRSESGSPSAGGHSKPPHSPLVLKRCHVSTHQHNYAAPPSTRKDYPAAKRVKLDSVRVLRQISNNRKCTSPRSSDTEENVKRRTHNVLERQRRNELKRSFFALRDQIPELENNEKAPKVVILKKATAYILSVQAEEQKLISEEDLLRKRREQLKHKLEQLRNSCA

Molecular target: sequestosome 1 (SQSTM1, best known as p62) (human (endogenous in VSMCs)) (UniProt Q13501)
Assay: co-IP; whole-cell lysates of VSMCs (cells also treated with celastrol, with or without CQ) immunoprecipitated with anti-c-MYC or anti-p62 antibody and blotted with anti-p62 or anti-c-MYC antibody

binding: binds
Substance: c-MYC (from UniProt P01106 1-454)
